Experimental data: the supplement of paper PMC10849652
This is one part of the list.

Protein sequences, listed by entry. Tags and fused reporters are not part of them. Lines headed by an entry give the natural chain unless they say otherwise; changes in a name come on top.
UniProt Q13794: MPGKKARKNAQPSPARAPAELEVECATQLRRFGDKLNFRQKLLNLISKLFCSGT
UniProt Q9UIW2: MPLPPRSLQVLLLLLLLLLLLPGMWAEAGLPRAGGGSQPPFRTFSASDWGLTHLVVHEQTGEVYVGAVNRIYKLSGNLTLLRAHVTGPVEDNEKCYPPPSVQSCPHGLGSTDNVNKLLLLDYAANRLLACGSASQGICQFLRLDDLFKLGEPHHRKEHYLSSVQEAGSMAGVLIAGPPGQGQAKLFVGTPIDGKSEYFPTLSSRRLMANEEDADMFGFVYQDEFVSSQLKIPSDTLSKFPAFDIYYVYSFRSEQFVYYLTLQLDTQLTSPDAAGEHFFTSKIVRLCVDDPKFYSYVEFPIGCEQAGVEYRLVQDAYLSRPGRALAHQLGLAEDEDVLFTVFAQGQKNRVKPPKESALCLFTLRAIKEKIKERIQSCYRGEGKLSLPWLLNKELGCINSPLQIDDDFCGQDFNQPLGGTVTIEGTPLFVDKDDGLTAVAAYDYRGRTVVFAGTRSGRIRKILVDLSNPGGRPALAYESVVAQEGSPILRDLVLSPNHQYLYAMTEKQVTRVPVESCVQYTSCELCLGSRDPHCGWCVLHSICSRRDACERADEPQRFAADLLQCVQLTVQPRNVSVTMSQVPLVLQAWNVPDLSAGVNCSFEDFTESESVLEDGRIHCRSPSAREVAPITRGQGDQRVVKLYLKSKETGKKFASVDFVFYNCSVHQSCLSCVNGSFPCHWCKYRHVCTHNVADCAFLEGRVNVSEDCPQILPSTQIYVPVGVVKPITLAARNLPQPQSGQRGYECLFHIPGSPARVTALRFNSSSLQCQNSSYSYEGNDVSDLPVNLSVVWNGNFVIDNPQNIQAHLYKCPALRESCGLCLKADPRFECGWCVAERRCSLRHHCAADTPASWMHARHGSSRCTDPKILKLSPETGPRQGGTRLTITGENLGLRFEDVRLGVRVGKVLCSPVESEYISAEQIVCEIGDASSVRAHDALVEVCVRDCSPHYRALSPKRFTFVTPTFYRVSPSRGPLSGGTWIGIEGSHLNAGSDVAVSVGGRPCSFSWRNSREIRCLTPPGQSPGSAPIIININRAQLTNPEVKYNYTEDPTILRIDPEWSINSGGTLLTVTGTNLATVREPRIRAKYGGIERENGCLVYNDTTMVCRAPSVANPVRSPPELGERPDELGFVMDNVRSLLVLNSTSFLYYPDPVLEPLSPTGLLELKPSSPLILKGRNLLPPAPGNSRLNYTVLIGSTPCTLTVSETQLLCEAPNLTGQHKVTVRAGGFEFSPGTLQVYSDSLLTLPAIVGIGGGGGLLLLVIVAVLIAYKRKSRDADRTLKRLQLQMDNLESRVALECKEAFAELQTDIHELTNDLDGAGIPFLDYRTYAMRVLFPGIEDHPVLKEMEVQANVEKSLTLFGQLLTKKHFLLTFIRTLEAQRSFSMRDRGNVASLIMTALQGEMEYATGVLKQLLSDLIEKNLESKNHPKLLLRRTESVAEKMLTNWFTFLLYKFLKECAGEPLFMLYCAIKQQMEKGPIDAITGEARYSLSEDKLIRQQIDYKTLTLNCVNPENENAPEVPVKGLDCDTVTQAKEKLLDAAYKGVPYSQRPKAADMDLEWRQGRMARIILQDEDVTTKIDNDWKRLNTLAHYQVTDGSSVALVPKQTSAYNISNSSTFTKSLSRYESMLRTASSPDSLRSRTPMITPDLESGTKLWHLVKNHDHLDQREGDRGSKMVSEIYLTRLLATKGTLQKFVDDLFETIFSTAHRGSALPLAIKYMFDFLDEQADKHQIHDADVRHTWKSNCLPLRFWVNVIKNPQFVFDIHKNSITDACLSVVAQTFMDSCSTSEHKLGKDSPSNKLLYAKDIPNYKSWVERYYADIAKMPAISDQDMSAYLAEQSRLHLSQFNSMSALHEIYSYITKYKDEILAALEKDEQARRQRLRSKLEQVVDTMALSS
UniProt Q9NR33: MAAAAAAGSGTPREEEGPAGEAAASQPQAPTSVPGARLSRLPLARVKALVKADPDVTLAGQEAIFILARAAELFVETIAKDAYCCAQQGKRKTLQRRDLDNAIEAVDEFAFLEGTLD
UniProt Q9Y2Y1: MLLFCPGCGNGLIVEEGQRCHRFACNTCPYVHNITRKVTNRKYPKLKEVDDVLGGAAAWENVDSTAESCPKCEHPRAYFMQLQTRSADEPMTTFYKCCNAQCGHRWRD
UniProt O75439: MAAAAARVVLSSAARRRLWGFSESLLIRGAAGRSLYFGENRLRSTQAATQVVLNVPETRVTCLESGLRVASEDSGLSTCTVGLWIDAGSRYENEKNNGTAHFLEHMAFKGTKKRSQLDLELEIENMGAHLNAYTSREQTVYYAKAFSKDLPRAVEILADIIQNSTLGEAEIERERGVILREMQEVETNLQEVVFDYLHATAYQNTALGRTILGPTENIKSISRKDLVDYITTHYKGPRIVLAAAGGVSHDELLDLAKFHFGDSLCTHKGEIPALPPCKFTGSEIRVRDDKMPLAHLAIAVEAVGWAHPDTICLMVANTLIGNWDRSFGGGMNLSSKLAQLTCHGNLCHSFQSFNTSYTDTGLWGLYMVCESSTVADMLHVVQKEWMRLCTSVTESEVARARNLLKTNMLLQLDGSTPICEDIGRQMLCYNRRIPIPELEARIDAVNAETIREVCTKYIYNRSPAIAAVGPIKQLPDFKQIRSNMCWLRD
UniProt O95602, whole entry, looked up: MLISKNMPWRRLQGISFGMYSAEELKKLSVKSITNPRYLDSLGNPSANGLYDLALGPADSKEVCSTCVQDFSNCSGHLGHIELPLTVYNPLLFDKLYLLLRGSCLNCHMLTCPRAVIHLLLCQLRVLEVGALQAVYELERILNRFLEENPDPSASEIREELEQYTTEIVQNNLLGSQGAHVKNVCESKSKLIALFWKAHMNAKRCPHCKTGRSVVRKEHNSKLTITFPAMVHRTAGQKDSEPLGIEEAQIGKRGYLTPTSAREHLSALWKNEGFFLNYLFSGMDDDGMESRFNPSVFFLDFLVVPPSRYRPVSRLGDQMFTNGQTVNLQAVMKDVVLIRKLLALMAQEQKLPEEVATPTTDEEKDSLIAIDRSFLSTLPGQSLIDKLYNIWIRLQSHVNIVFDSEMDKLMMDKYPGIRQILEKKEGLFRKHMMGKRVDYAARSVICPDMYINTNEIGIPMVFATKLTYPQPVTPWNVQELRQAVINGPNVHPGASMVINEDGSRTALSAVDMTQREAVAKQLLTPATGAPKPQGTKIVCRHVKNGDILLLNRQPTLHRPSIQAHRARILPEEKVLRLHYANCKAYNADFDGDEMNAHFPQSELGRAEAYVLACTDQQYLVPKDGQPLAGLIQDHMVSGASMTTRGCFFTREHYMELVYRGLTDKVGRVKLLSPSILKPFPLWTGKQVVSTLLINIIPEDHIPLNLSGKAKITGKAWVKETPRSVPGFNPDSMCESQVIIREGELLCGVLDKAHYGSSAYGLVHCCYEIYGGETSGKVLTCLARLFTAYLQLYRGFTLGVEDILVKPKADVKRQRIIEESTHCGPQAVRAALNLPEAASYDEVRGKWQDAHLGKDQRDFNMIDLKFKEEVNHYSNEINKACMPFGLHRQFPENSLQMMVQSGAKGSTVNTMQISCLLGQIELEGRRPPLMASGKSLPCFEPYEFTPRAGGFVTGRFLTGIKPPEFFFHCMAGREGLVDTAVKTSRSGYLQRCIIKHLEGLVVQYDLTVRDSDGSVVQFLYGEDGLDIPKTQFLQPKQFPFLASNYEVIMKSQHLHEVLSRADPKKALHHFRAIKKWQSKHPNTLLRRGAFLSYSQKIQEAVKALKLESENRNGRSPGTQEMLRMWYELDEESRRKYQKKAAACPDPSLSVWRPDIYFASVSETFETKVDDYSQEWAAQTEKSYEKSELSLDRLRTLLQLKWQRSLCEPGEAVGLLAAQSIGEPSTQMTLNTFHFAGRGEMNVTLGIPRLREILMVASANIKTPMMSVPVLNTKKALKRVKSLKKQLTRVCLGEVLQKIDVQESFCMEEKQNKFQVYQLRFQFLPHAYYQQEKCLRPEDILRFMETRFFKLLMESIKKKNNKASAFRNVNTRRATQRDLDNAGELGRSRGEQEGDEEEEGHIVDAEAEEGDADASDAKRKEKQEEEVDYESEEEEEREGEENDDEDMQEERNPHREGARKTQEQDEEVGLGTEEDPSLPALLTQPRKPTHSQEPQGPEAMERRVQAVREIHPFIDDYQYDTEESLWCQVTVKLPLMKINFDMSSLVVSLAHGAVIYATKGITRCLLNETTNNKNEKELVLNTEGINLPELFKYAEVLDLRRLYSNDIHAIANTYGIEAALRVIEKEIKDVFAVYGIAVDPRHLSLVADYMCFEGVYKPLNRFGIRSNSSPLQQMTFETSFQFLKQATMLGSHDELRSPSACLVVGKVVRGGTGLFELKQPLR
UniProt Q14181: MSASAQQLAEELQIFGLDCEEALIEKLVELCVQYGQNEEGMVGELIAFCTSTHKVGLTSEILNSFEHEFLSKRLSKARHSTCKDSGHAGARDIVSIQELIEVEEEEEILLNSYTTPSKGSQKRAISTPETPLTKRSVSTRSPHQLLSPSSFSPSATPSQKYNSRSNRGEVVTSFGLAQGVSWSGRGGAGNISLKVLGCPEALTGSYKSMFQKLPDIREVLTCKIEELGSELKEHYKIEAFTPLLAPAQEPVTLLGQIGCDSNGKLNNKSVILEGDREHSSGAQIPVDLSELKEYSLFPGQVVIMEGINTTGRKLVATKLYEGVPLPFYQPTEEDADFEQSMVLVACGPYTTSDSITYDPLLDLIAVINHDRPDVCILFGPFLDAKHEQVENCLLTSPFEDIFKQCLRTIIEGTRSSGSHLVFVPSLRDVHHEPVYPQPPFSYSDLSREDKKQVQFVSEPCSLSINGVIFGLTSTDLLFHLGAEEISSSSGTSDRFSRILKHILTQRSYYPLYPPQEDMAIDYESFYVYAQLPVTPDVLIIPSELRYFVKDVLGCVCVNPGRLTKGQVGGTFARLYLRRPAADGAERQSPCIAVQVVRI
UniProt Q9Y244: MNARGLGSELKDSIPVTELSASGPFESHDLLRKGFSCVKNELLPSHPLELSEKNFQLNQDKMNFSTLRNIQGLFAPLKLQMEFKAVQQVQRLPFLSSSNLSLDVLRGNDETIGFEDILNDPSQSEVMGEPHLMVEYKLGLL
UniProt P45877: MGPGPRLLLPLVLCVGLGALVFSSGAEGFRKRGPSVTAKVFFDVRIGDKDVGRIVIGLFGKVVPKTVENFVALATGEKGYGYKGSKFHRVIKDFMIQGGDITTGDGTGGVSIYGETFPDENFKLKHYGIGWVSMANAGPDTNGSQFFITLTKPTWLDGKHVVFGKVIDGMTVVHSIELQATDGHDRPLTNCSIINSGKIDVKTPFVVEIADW
UniProt Q96HA1, whole entry, looked up: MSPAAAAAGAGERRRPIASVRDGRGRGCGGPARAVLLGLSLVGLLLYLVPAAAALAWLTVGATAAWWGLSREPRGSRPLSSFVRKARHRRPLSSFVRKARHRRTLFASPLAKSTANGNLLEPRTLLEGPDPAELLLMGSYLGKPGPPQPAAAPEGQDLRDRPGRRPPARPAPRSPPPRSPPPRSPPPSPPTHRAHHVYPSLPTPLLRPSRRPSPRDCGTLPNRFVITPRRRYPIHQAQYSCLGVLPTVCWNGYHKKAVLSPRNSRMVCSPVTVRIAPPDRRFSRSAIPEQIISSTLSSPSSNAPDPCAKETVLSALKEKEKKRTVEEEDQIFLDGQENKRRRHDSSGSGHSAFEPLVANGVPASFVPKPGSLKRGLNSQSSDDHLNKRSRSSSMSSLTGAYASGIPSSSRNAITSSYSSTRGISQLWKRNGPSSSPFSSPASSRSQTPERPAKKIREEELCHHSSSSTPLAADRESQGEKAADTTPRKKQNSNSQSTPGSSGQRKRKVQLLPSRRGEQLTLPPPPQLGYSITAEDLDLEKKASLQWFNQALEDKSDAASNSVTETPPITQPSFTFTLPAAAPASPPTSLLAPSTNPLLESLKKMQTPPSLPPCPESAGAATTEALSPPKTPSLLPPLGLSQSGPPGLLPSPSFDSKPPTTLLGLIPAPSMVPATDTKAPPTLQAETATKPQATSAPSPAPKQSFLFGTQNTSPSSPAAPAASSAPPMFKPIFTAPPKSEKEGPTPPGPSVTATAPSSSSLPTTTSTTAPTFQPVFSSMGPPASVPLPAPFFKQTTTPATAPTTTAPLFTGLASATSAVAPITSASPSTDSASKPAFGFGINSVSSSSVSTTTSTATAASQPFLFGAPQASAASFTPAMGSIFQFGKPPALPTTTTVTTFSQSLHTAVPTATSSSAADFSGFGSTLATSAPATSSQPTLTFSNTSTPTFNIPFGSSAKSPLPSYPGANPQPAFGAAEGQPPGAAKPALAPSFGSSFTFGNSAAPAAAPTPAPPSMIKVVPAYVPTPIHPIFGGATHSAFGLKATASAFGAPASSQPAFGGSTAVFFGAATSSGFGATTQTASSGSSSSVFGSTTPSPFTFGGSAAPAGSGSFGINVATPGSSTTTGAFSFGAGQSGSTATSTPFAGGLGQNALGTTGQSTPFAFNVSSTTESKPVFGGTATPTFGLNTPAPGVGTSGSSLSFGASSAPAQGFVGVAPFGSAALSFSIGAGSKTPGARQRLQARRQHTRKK

Key:
Test in all cases: log2 fold change, soluble protein after heating vs DMSO (PISA); higher = thermal stabilisation; K562 cells, 10 uM, 30 min; active = over 0.2 and 3.5 SD of the protein, either way, in both replicates (recomputed)
[1] = compound: CC[C@@H]1C(=O)N(C)c2cnc(Nc3ccc(C(=O)NC4CCN(C)CC4)cc3OC)nc2N1C1CCCC1
Method in brief: (§1)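 K562 cells at 2×10^6 cells/mL were treated with 10 μM compound for 30 min. Aliquots were heated for 3 min across 48°C-58°C, pooled, and extracted in PBS with 0.5% NP-40 at 4°C; soluble protein was the supernatant after 21,000xg for 90 min. Soluble protein was quantified by TMTpro 16plex LC-MS/MS with channel sums equalised, and reported as log2 fold change in thermal stability against DMSO controls, with values from duplicates.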

volasertib = compound: CC[C@@H]1C(=O)N(C)c2cnc(Nc3ccc(C(=O)N[C@H]4CC[C@H](N5CCN(CC6CC6)CC5)CC4)cc3OC)nc2N1C(C)C [volasertib]
Method in brief: as §1

[2] = compound: CC[C@H](C)N1C=C(C2=C(C=C(C=C21)C3=CN=C(C=C3)N4CCNCC4)C(=O)NCC5=C(C=C(NC5=O)C)C)C
Method in brief: as §1

epoxomicin = compound: CC[C@H](C)[C@@H](C(=O)N[C@@H]([C@@H](C)O)C(=O)N[C@@H](CC(C)C)C(=O)[C@]1(CO1)C)NC(=O)[C@H]([C@@H](C)CC)N(C)C(=O)C [epoxomicin]
Method in brief: as §1

[3] = compound: CCn1c(C(=O)N(C2CC2)C2CC2)cc2c3c(ncn3C)c(Nc3cc(C)n(C)n3)nc21
Method in brief: as §1

[4] = compound: CCn1cc(-c2ccnc3[nH]c(-c4cccc(CN(C)C)c4)cc23)c(-c2ccc(NC(=O)N(C)C)cc2)n1
Method in brief: as §1

[5] = compound: CN(C)CC(=O)Nc1ccc2[nH]c(=O)c3ccccc3c2c1
Method in brief: as §1

rosiglitazone = compound: CN(CCOC1=CC=C(C=C1)C[C@H]2C(=O)NC(=O)S2)C3=CC=CC=N3 (racemic) [rosiglitazone]
Method in brief: as §1

[6] = compound: CN1C2=C(C3=C1C(=O)N(N=C3)CC4=CC(=CC=C4)N)SC(=C2)S(=O)C
Method in brief: as §1

[7] = compound: CN1CCC(CNc2ccc3ncc(-c4cccc(OC(F)(F)F)c4)n3n2)CC1
Method in brief: as §1

Target | log2 fold change [1] | log2 fold change (volasertib) | log2 fold change [2] | log2 fold change (epoxomicin) | log2 fold change [3] | log2 fold change [4] | log2 fold change [5] | log2 fold change (rosiglitazone) | log2 fold change [6] | log2 fold change [7]
PMAIP1 (UniProt Q13794) | inactive: -0.042 | inactive: -0.042 | inactive: -0.003 | inactive: 0.317 | inactive: 0.181 | inactive: 0.072 | inactive: -0.035 | inactive: -0.027 | inactive: 0.036 | inactive: 0.095
PLXNA1 (UniProt Q9UIW2) | inactive: 0.019 | inactive: 0.01 | inactive: -0.023 | inactive: 0.024 | inactive: -0.003 | inactive: -0.029 | inactive: -0.016 | inactive: 0.037 | inactive: -0.059 | inactive: 0.03
POLDIP3 (UniProt Q9BY77) | inactive: 0.116 | inactive: 0.101 | inactive: 0.009 | inactive: 0.126 | inactive: 0.053 | inactive: 0.122 | inactive: -0.121 | inactive: 0.021 | inactive: 0.074 | inactive: 0.19
POGLUT3 (UniProt Q7Z4H8) | inactive: 0.015 | inactive: 0.022 | inactive: 0.024 | inactive: 0.062 | inactive: 0.049 | inactive: 0.036 | inactive: 0.009 | inactive: 0.07 | inactive: 0.023 | inactive: 0.101
POLR2L (UniProt P62875) | inactive: 0.088 | inactive: -0.134 | inactive: 0.036 | inactive: 0.247 | inactive: 0.05 | inactive: -0.054 | inactive: 0.195 | – | inactive: 0.052 | inactive: 0.16
POLE4 (UniProt Q9NR33) | inactive: 0.032 | inactive: -0.147 | inactive: -0.017 | inactive: 0.088 | inactive: -0.052 | inactive: -0.006 | inactive: 0.065 | inactive: 0.006 | – | inactive: -0.007
POLR2D (UniProt O15514) | inactive: 0.206 | inactive: 0.135 | inactive: -0.017 | inactive: 0.17 | – | inactive: 0.043 | inactive: -0.02 | – | inactive: -0.101 | inactive: 0.056
POLR2B (UniProt P30876) | inactive: 0.064 | inactive: -0.128 | inactive: -0.018 | inactive: -0.008 | – | inactive: 0.023 | inactive: -0.015 | – | inactive: 0.03 | inactive: 0.031
POLR3K (UniProt Q9Y2Y1) | inactive: -0.077 | inactive: 0.056 | inactive: -0.018 | inactive: 0.067 | – | inactive: 0.038 | inactive: -0.048 | – | inactive: -0.012 | inactive: -0.01
POMK (UniProt Q9H5K3) | inactive: -0.079 | inactive: -0.093 | inactive: 0.014 | inactive: -0.05 | – | inactive: 0.054 | inactive: -0.007 | – | inactive: 0.023 | inactive: -0.082
PMM2 (UniProt O15305) | inactive: -0.03 | inactive: -0.021 | inactive: 0.026 | inactive: -0.021 | – | inactive: -0.002 | inactive: -0.049 | – | inactive: -0.076 | inactive: -0.049
POP1 (UniProt Q99575) | inactive: 0.069 | inactive: 0.092 | inactive: 0.02 | inactive: -0.001 | – | inactive: 0.028 | inactive: -0.019 | – | inactive: -0.009 | inactive: 0.075
PMPCB (UniProt O75439) | inactive: 0.008 | inactive: 0.138 | inactive: 0.038 | inactive: 0.022 | – | inactive: -0.125 | inactive: 0.032 | – | inactive: -0.084 | inactive: 0.098
POLR1A (UniProt O95602) | inactive: 0.059 | inactive: 0.071 | inactive: -0.26 | inactive: -0.037 | – | inactive: -0.066 | inactive: -0.086 | – | inactive: 0.056 | inactive: 0.054
PPIL2 (UniProt Q13356) | inactive: -0.196 | active: -0.599 | inactive: 0.159 | inactive: 0.142 | – | inactive: -0.031 | inactive: 0.08 | – | inactive: -0.019 | inactive: -0.022
PPIA isoform 2 (UniProt P62937) | inactive: 0.082 | inactive: -0.02 | inactive: -0.119 | inactive: -0.069 | – | inactive: 0.123 | inactive: -0.029 | inactive: 0.152 | inactive: -0.128 | inactive: 0.094

Target | log2 fold change [1] | log2 fold change (volasertib) | log2 fold change [2] | log2 fold change (epoxomicin) | log2 fold change [3] | log2 fold change [4] | log2 fold change [5] | log2 fold change (rosiglitazone) | log2 fold change [6] | log2 fold change [7]
POGLUT1 (UniProt Q8NBL1) | inactive: 0.007 | inactive: -0.054 | inactive: 0.013 | inactive: 0.012 | – | inactive: 0.089 | inactive: -0.083 | – | inactive: 0.039 | active: 0.26
PML (UniProt P29590) | inactive: -0.051 | inactive: -0.136 | inactive: 0.027 | inactive: -0.021 | – | inactive: -0.024 | inactive: -0.049 | – | inactive: 0.015 | inactive: -0.045
POLA2 (UniProt Q14181) | inactive: -0.114 | active: -0.328 | inactive: 0.051 | inactive: 0.022 | – | inactive: -0.109 | inactive: 0.1 | – | inactive: -0.057 | inactive: -0.22
PPIL1 (UniProt Q9Y3C6) | inactive: 0.014 | inactive: -0.051 | inactive: 0.01 | inactive: -0.024 | – | inactive: 0.02 | inactive: -0.014 | – | inactive: 0.049 | inactive: 0.018
POLR2G (UniProt P62487) | inactive: 0.215 | inactive: 0.276 | inactive: -0.075 | inactive: 0.054 | – | inactive: -0.003 | inactive: 0.02 | – | inactive: 0.002 | inactive: 0.081
POMP (UniProt Q9Y244) | inactive: 0.097 | inactive: -0.049 | inactive: 0.008 | active: 0.581 | – | inactive: 0.021 | inactive: -0.018 | – | inactive: -0.02 | inactive: -0.004
PNPLA6 (UniProt Q8IY17) | inactive: -0.086 | inactive: 0.141 | inactive: -0.001 | inactive: -0.049 | inactive: -0.109 | – | inactive: 0.05 | inactive: 0.171 | inactive: 0.121 | –
POLR2M (UniProt P0CAP2) | inactive: 0.084 | inactive: 0.026 | inactive: 0.013 | inactive: -0.018 | – | inactive: 0.034 | inactive: 0.004 | – | inactive: -0.028 | inactive: 0.037
POLR2A (UniProt P24928) | inactive: 0.093 | inactive: -0.034 | inactive: 0.006 | inactive: 0.004 | – | inactive: 0.022 | inactive: 0.041 | – | inactive: -0.052 | inactive: 0.156
POLA1 (UniProt P09884) | inactive: -0.048 | active: -0.466 | inactive: 0.059 | inactive: 0.045 | – | inactive: -0.089 | inactive: 0.032 | – | inactive: -0.012 | inactive: -0.163
PMM1 (UniProt Q92871) | inactive: -0.029 | inactive: -0.239 | inactive: -0.024 | inactive: -0.002 | – | inactive: 0.08 | inactive: 0.009 | – | inactive: -0.061 | inactive: -0.018
PPIL4 (UniProt Q8WUA2) | inactive: -0.024 | active: -0.253 | inactive: 0.043 | inactive: 0.011 | – | inactive: 0.047 | inactive: 0.007 | – | inactive: 0.022 | inactive: -0.098
PNPLA8 (UniProt Q9NP80) | inactive: -0.048 | inactive: -0.184 | inactive: -0.07 | inactive: 0.112 | – | inactive: -0.07 | inactive: 0.029 | – | inactive: 0.003 | active: -0.262
PPIC (UniProt P45877) | inactive: 0.038 | inactive: -0.461 | inactive: 0.061 | inactive: 0.076 | inactive: 0.013 | inactive: 0.002 | – | inactive: -0.115 | inactive: 0.176 | inactive: -0.047
POM121 (UniProt Q96HA1) | inactive: -0.017 | inactive: -0.027 | inactive: 0.056 | inactive: -0.062 | – | inactive: 0.03 | inactive: -0.071 | – | inactive: 0.137 | inactive: -0.149
PLTP (UniProt P55058) | inactive: 0.254 | inactive: 0.097 | inactive: -0.108 | inactive: -0.05 | inactive: 0.008 | inactive: -0.268 | inactive: -0.093 | – | inactive: -0.088 | inactive: 0.155

Just log2 fold change [2], log2 fold change [6] and log2 fold change [1] (2 entries from above):
Target | log2 fold change [2] | log2 fold change [6] | log2 fold change [1]
POLR2G (UniProt P62487) | inactive: -0.075 | inactive: 0.002 | inactive: 0.215
POMP (UniProt Q9Y244) | inactive: 0.008 | inactive: -0.02 | inactive: 0.097
